Data as given in paper PMC7819943, “Rice protein-binding microarrays: a tool to detect cis-acting elements near promoter regions in rice”.
The list shows a part of the results.

Amino acid sequences for entries named in this document (tags omitted).
UniProt Q0JBA9, entry or part of it: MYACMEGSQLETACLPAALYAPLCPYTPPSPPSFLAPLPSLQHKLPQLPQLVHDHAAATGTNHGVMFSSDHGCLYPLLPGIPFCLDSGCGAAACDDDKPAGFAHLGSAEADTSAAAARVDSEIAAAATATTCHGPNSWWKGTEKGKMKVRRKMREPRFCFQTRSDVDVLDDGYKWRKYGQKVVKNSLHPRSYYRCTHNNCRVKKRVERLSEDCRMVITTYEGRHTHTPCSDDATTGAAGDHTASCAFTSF

target: OsWRKY34 (Oryza sativa, UniProt Q0JBA9 1-250); test: protein-binding microarray (RPBM); PBS, 2% BSA, 51.3 ng/ul salmon testes DNA, 50 uM zinc acetate, 200 nM TF, 25 C, 1 h; high values mean tight binding; conditions: protein: recombinant; tags: N-terminal polyhistidine and DsRed monomer fusion (pET32a); label: CyDye5-dUTP incorporated in the synthesized complementary strand; 3' TTTTT single-stranded linker to array surface; dsDNA, one strand shown
Outline: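 Binding signal is defined as the fluorescence intensity of each feature in arbitrary units, read on an Axon 4000B scanner. Transcription factors with N-terminal polyhistidine and DsRed fusions came from E. coli BL21-CodonPlus and were purified on Ni–NTA. They were incubated at 200 nM for 1 h at 25 °C on a custom Agilent array that had been made double-stranded with Cy5-dUTP, with 50 µM zinc acetate present, and the array was washed.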

Sequence	binding signal
TAGATCAGATATTCAGATACTGTAGTTTCAAACTTTCAATCGGAGTCACCTAGTGCAG	8030 fluorescence intensity (a.u.)
ACCACTCCTGCATGACATTAGGTAGCAGCATCTTCTTGTTCGGAGTCACCTAGTGCAG	8130 fluorescence intensity (a.u.)
TCCTCCATTAATATGGTGCATATCCAATTTGATCATATCTCGGAGTCACCTAGTGCAG	8110 fluorescence intensity (a.u.)
TCTTCTCCGTTTCCACCCCATTTCGCTTCCCGATCACATCCGGAGTCACCTAGTGCAG	10200 fluorescence intensity (a.u.)
CTCGACTCGAGTAGTCCAGTCCACATGTGTTTCATCTTTGCGGAGTCACCTAGTGCAG	10100 fluorescence intensity (a.u.)
GTGCTTTGTACTGATCTGATTGCCTTCGCCTCATCATAATCGGAGTCACCTAGTGCAG	8800 fluorescence intensity (a.u.)
TTCCGGCATGAGTTTTTTTATTGGGCTGGTGATGGGGAGACGGAGTCACCTAGTGCAG	8700 fluorescence intensity (a.u.)
GAAAGATTTTTTTTTCTTATCTCTCACTCGATTTTCTCACCGGAGTCACCTAGTGCAG	8210 fluorescence intensity (a.u.)
TGCTCCAAGTGTTGGTCTTTCTTCCATTTCCCAAATCCCACGGAGTCACCTAGTGCAG	11600 fluorescence intensity (a.u.)
TGCAAAAAATCTTTTGTCTTAGGTCAGCTTCTCACAATCCCGGAGTCACCTAGTGCAG	8240 fluorescence intensity (a.u.)
GATCACAGCAGCCGCCGCCATCGCCATCTCTCGGACGGAACGGAGTCACCTAGTGCAG	11400 fluorescence intensity (a.u.)
TAATGGTGGTTTTAAATTTGTTTAAAGTTTGATCTTCAACCGGAGTCACCTAGTGCAG	8060 fluorescence intensity (a.u.)
CTGAAGTTCTAAACATTATGCCAGACACATAAAGTCTTACCGGAGTCACCTAGTGCAG	8330 fluorescence intensity (a.u.)
TCTATACCGAATACACATCCCTATACGTATAAGTCTATAGCGGAGTCACCTAGTGCAG	8840 fluorescence intensity (a.u.)
AGCTCTCAATACGTGACCATGAATCAGATTCAAACCTGAACGGAGTCACCTAGTGCAG	8200 fluorescence intensity (a.u.)
TTGGTGGGCTTTTTTGAGGGACCTTAACTCTCTCCTTGCTCGGAGTCACCTAGTGCAG	9720 fluorescence intensity (a.u.)
TTTTTTTCAATTCGTTTTTTTTTCATTTTTCATCGTCTTTCGGAGTCACCTAGTGCAG	8400 fluorescence intensity (a.u.)
TGTGTTGTGTTGTGACTTGTGTGAGTTGTTACCGGCAAGTCGGAGTCACCTAGTGCAG	8420 fluorescence intensity (a.u.)
ACGATCAGGCTTCAAACTCAGTGATATCCTTTCAGTCCGACGGAGTCACCTAGTGCAG	8780 fluorescence intensity (a.u.)
TAGCTTTGGCACCTTGCGCGCGCGTACACAGCCGCTTAAGCGGAGTCACCTAGTGCAG	8550 fluorescence intensity (a.u.)
TCCGTTCCCGCCACACAAACGACGCATGCTTTTTTTCTCCCGGAGTCACCTAGTGCAG	9890 fluorescence intensity (a.u.)

Shown as comma-separated lines: entries from further up
Sequence,binding signal
TTGGTGGGCTTTTTTGAGGGACCTTAACTCTCTCCTTGCTCGGAGTCACCTAGTGCAG,9720 fluorescence intensity (a.u.)
TTTTTTTCAATTCGTTTTTTTTTCATTTTTCATCGTCTTTCGGAGTCACCTAGTGCAG,8400 fluorescence intensity (a.u.)

(further entries)

Sequence	binding signal
AGAAAGCCCATTTTGCCCTTTGTGCTTCAGAACATCGAGCCGGAGTCACCTAGTGCAG	8020 fluorescence intensity (a.u.)
TCACTTTATGCCATTTTTAGTCAAATCAAATTTTGGTAAACGGAGTCACCTAGTGCAG	8220 fluorescence intensity (a.u.)
TACCTTTTGTGGTGGGTTGTGTCTTCATATTTGAATTCGTCGGAGTCACCTAGTGCAG	11700 fluorescence intensity (a.u.)
TATGCGACATATCTGCTTATGCTATATACTATTTCTCCAACGGAGTCACCTAGTGCAG	10100 fluorescence intensity (a.u.)
TCACCCACATCCCTGTCTCTCTACCCTACCATGGACAGCTCGGAGTCACCTAGTGCAG	9760 fluorescence intensity (a.u.)
GTTCAGGAGCTATCTGTTTTATTTCAGGGATGGTTATTTGCGGAGTCACCTAGTGCAG	8030 fluorescence intensity (a.u.)
AGATACTCAACGCCATCACGAGGGCCAAGGGGAGGAGATGCGGAGTCACCTAGTGCAG	8170 fluorescence intensity (a.u.)
CTATGGTCCAAATTATCTTTCTCCTTTTTTCCTCTAATTACGGAGTCACCTAGTGCAG	8160 fluorescence intensity (a.u.)
GGGGAGTTGGGGACGGTGATCTCCACGGGGCGGATGGACTCGGAGTCACCTAGTGCAG	13100 fluorescence intensity (a.u.)
TTATGGCAGTCCAAAAACATGTTGTCACCATTGTCCATGTCGGAGTCACCTAGTGCAG	8480 fluorescence intensity (a.u.)
GAGTTATTAGCTTTTCTTGGTCTTGGTATACCTATGAAATCGGAGTCACCTAGTGCAG	9670 fluorescence intensity (a.u.)
TGTTTTTTCTCTGCATGAGTGTATTTCTCTTATTTGTTTACGGAGTCACCTAGTGCAG	8580 fluorescence intensity (a.u.)
GTAATCACGTAATCACGCCCAGCATCCAGAACGTTCCTCCCGGAGTCACCTAGTGCAG	8200 fluorescence intensity (a.u.)
GGATTGCCGGTTTTTGGTGTCCTTTTCGCATCAGCTTTAGCGGAGTCACCTAGTGCAG	9120 fluorescence intensity (a.u.)
CGTTGAGCGTACAGTGCATTTCCTTTCCTACATGTCGCCTCGGAGTCACCTAGTGCAG	10500 fluorescence intensity (a.u.)
CTTTCCTTCGTTGTCAACTCTTCATGCATCCATTTTGATTCGGAGTCACCTAGTGCAG	9250 fluorescence intensity (a.u.)
AATAAAAACATTGTTTCTGTTTTTTCTTTTTTCTAATTTTCGGAGTCACCTAGTGCAG	8740 fluorescence intensity (a.u.)
GATTTAGAGTTGGAGTCAGTCGGTTTGACCAGCCACATGCCGGAGTCACCTAGTGCAG	8690 fluorescence intensity (a.u.)
GCCTTTTTCATGTTGCACGCTATCATTTCGAGATCAAGACCGGAGTCACCTAGTGCAG	10500 fluorescence intensity (a.u.)
TCTACGGCGGGGCGGCGGCGTGGAGGCAACTCGGCACGGGCGGAGTCACCTAGTGCAG	9960 fluorescence intensity (a.u.)
GCCTTTTTCTTCTTCTTCTTCTTCTTTCTCTCTCCTGCAGCGGAGTCACCTAGTGCAG	9670 fluorescence intensity (a.u.)

Sequence	binding signal
GGCTTTTTTGTTGGGCTTCTTTTGATCAAAAACGTTGTTTCGGAGTCACCTAGTGCAG	12000 fluorescence intensity (a.u.)
GTGCTTGCCTGCAAATATTGATTTATACATACAGACCGGTCGGAGTCACCTAGTGCAG	13600 fluorescence intensity (a.u.)
CACATGTTTGACTATTCGTCTTATTTAAAAATTTTATGCACGGAGTCACCTAGTGCAG	8770 fluorescence intensity (a.u.)
ATATTCTTTATCTACCTATCGCCATTGCTATTTTTTTAATCGGAGTCACCTAGTGCAG	9370 fluorescence intensity (a.u.)
GTGCGGGAGACGTGGTGGTGGGTGCTGCTGCTGTGGATCCCGGAGTCACCTAGTGCAG	8470 fluorescence intensity (a.u.)
CTTTCCTCTACACTAGTGGGTGGCGCCGTGGGTGGGAGGGCGGAGTCACCTAGTGCAG	12200 fluorescence intensity (a.u.)
CACTTCTATTGGTTCTTTGTCTGGGAGTAGCAGCATAAGTCGGAGTCACCTAGTGCAG	8540 fluorescence intensity (a.u.)
ATTTCTTGTTGGCTTCTCGATAAAATCAATCAGGTTTCAACGGAGTCACCTAGTGCAG	10200 fluorescence intensity (a.u.)
ACCGCCCTTGCCTCGGCCCGGCCCATCGTCGTGCCAGGTCCGGAGTCACCTAGTGCAG	8410 fluorescence intensity (a.u.)
GATTAATTCACTACTGCTTCCTCCATGTCATATTATAAGACGGAGTCACCTAGTGCAG	8490 fluorescence intensity (a.u.)
ATTCTCTCTTCTTCCGTTCTTCTCTATGATTTCTATATAACGGAGTCACCTAGTGCAG	8690 fluorescence intensity (a.u.)
CAATCTCCTCAATCCTCTTCTTCTCAGACACATGATTTTACGGAGTCACCTAGTGCAG	8980 fluorescence intensity (a.u.)
CTAATTTATTCCCTGCAACATTCCATTCCGTTAACTTGCACGGAGTCACCTAGTGCAG	9500 fluorescence intensity (a.u.)
GCCGAGCAGTAATTATGTTTTGCTCGATCCATCCATCAATCGGAGTCACCTAGTGCAG	8700 fluorescence intensity (a.u.)
CATGCCCCAGGTGCATATATATGCTAATTACACCACCTAACGGAGTCACCTAGTGCAG	8760 fluorescence intensity (a.u.)
TTATCGTCTTTTCTTTGGCTGCTGTCATGAGGACATGTCTCGGAGTCACCTAGTGCAG	8680 fluorescence intensity (a.u.)
CTTTTTACTTGCACTGTTTGACTACTCATCTTATTTAAAACGGAGTCACCTAGTGCAG	14100 fluorescence intensity (a.u.)
TCTGGGCTCTCTTTCCTTAGTTCGTCTTCATCTGCCCATCCGGAGTCACCTAGTGCAG	8850 fluorescence intensity (a.u.)
CGCCGCCATCGCCGTCCTCCTCCACCGCGTCGCCGACGGCCGGAGTCACCTAGTGCAG	8260 fluorescence intensity (a.u.)
TTCTAAAATTTTGTACGTATCTATCTACCAGTGTCACTTACGGAGTCACCTAGTGCAG	9810 fluorescence intensity (a.u.)
GTTCAATTTTGTCATAATCGGCTGCTTCTTCGCTTCAATTCGGAGTCACCTAGTGCAG	9190 fluorescence intensity (a.u.)

Sequence	binding signal
CTCCGCCTCCACGACCGACTGCCGCCGCTCGTCCGCGCCTCGGAGTCACCTAGTGCAG	9510 fluorescence intensity (a.u.)
TACTTCCTAGCTTCATATTACATCAGTTTCATGTATCTTGCGGAGTCACCTAGTGCAG	11500 fluorescence intensity (a.u.)
GACCGTTGCATTGACATCCTTTTCTTTTTGGTAAATTTTGCGGAGTCACCTAGTGCAG	9590 fluorescence intensity (a.u.)
TTCCAAACTCACCTCTGTTTTCTTCACGCGCATACTTTTCCGGAGTCACCTAGTGCAG	9260 fluorescence intensity (a.u.)
AACAGTTTTGCCACTTCTTTACCTATTTTTTTACAGTAAACGGAGTCACCTAGTGCAG	10400 fluorescence intensity (a.u.)
ATTCTTCGCTGCGCGGCTGCGCGCGCGCCATCTCGCTGATCGGAGTCACCTAGTGCAG	12400 fluorescence intensity (a.u.)
CACTCCGTCCATTTACAAATAACTGATGAATTTGTCTTTTCGGAGTCACCTAGTGCAG	8400 fluorescence intensity (a.u.)
CTTCTTTCTACTACCTTTATCCTAGAAAGAACATCTTTCTCGGAGTCACCTAGTGCAG	8560 fluorescence intensity (a.u.)
AAGTTAAATTGACAATCCTACCTGCTCGTCAAATTTCAACCGGAGTCACCTAGTGCAG	8520 fluorescence intensity (a.u.)
CATCGCATCGGGCAAGTCCTACAGCCATATCCTCCAGTTCCGGAGTCACCTAGTGCAG	8780 fluorescence intensity (a.u.)
TTCCGGCATATGTAGGCCGATCGGTTGACTTGTCACGTCCCGGAGTCACCTAGTGCAG	10000 fluorescence intensity (a.u.)
CACTTTTACTGCTACACCCGTATGCGGGGATGGGGATGGTCGGAGTCACCTAGTGCAG	12700 fluorescence intensity (a.u.)
GACAAACCCTGAGTTTCCGTGCCCAACGTTTGACCATCAGCGGAGTCACCTAGTGCAG	8660 fluorescence intensity (a.u.)
ATGTGTCCAAATCTGAATGCATGGGCTACTCACACGACTCCGGAGTCACCTAGTGCAG	8480 fluorescence intensity (a.u.)
CCGGACTCCAGCCAATTCTTGCTCTGTTCCCGCGACAATCCGGAGTCACCTAGTGCAG	8280 fluorescence intensity (a.u.)
ATCCCCTCCATTATGGGCCCTACCCGCGGCATCTCCTCGTCGGAGTCACCTAGTGCAG	8180 fluorescence intensity (a.u.)
GTGGGATTAGGATTGGAAAATGAATGAAGGGTTAGAATTACGGAGTCACCTAGTGCAG	8560 fluorescence intensity (a.u.)
GCAGCTAAGTGGCATATCTTCGCCTCGCCGTCCCCACCCACGGAGTCACCTAGTGCAG	8140 fluorescence intensity (a.u.)
CCCTTTACACTTGCTTATCCAGTCATAGTTGCCTTACCAGCGGAGTCACCTAGTGCAG	9100 fluorescence intensity (a.u.)
ATTTGGTGTGATGCTTTTTGGAAAAAAATTTGGATACTAACGGAGTCACCTAGTGCAG	8680 fluorescence intensity (a.u.)
GTCTCAAAGATCTGACTGATTTTCTCCCTGCATCTCTTGCCGGAGTCACCTAGTGCAG	8570 fluorescence intensity (a.u.)

Single values from the entries so far:
Value for GCAGCTAAGTGGCATATCTTCGCCTCGCCGTCCCCACCCACGGAGTCACCTAGTGCAG under binding signal: 8140 fluorescence intensity (a.u.)
Value for GACCGTTGCATTGACATCCTTTTCTTTTTGGTAAATTTTGCGGAGTCACCTAGTGCAG under binding signal: 9590 fluorescence intensity (a.u.)
Value for GTCTCAAAGATCTGACTGATTTTCTCCCTGCATCTCTTGCCGGAGTCACCTAGTGCAG under binding signal: 8570 fluorescence intensity (a.u.)
Value for CTTCTTTCTACTACCTTTATCCTAGAAAGAACATCTTTCTCGGAGTCACCTAGTGCAG under binding signal: 8560 fluorescence intensity (a.u.)
